“And” between values parts separate entries of the source, which are not always exact repeats. Equal entries are not always repeated. Where two headings read alike, the source gives them in different places.
Key:
[1] = test system: ability to maintain balance on a rotating rod; details: mice
[2] = test system: subcutaneous picrotoxin seizure threshold; details: mice; intraperitoneal
[3] = test system: maximal electroshock seizures; experiment: maximal electroshock seizure (MES) pattern test, mice
[4] = test system: subcutaneous bicuculline seizure threshold; experiment: subcutaneous Bicuculline Seizure Threshold Test (sc Bic); details: mice; intraperitoneal
[5] = test system: maximal electroshock seizures; experiment: maximal electroshock seizure (MES) pattern test, rats; details: rats (Table 7; title of Table 5 prints Mice); oral
[6] = test system: subcutaneous metrazol seizure threshold; experiment: subcutaneous Metrazol Seizure Threshold Test (sc Met), mice
righting reflex = experiment: hypnosis (loss of righting reflex), HD50; details: mice; intraperitoneal
[7] = test system: ability to maintain balance on a rotating rod; experiment: Rotorod Toxicity Test, rats; format: in vivo; details: rats (Table 7; title of Table 5 prints Mice); oral
[8] = test system: subcutaneous strychnine seizure pattern; details: mice; intraperitoneal

With `CC(NC(=O)c1ccc(N)cc1)c1ccccc1` (stereo not drawn) [4-amino-N-(alpha-methylbenzyl)-benzamide] the “Slope, regression line, Rotorod” value ([1]; intraperitoneal) was 15.32, the “Slope, regression line, Rotorod” value ([1]; oral) was 9.09 and the “Slope, regression line, Picrotoxin” value [2] was 1.73. The “Slope, regression line, MES” value ([3]; intraperitoneal) was 6.02, the “Slope, regression line, MES” value ([3]; oral) was 24.79 and the “Slope, regression line, Bicuculline” value [4] was 2.38. For the same molecule, the “Slope, regression line, MES” value [5] was 19.24, the “Slope, regression line, sc Met” value ([6]; intraperitoneal) was 13.67 and the “Slope, regression line, HD50 (righting reflex)” value (“Slope, regression line, HD50” for short) (righting reflex) was 20.85. For the same molecule, the “Slope, regression line, Rotorod” value [7] was 5.66.

In the case of `CCC1(c2ccccc2)NC(=O)N(C)C1=O` (stereo not shown) [Mephenytoin], the “Slope, regression line, Rotorod” value ([1]; intraperitoneal) was 9.22, the “Slope, regression line, Rotorod” value ([1]; oral) was 6.58 and the “Slope, regression line, Picrotoxin” value [2] was 7.43. For the same molecule, the “Slope, regression line, MES” value ([3]; intraperitoneal) was 8.01, the “Slope, regression line, MES” value ([3]; oral) was 28.81 and the “Slope, regression line, Bicuculline” value [4] was 1.99. The “Slope, regression line, MES” value [5] was 3.60, the “Slope, regression line, sc Met” value ([6]; intraperitoneal) was 4.76 and the “Slope, regression line, sc Met” value ([6]; oral) was 3.60. The “Slope, regression line, HD50” value (righting reflex) was 17.00 and the “Slope, regression line, Rotorod” value [7] was 13.47.

With `CCC1(c2ccccc2)C(=O)NC(=O)NC1=O` [Phenobarbital] the “Slope, regression line, Rotorod” value ([1]; intraperitoneal) was 24.67, the “Slope, regression line, Rotorod” value ([1]; oral) was 8.51 and the “Slope, regression line, Picrotoxin” value [2] was 4.79. The “Slope, regression line, Bicuculline” value [4] was 4.07, the “Slope, regression line, MES” value [5] was 4.12 and the “Slope, regression line, Strychnine” value [8] was 18.51. For the same molecule, the “Slope, regression line, sc Met” value ([6]; intraperitoneal) was 5.93, the “Slope, regression line, HD50” value (righting reflex) was 8.41 and the “Slope, regression line, Rotorod” value [7] was 3.00.

With `NC(=O)N1c2ccccc2C=Cc2ccccc21` [Carbamazepine] the “Slope, regression line, Rotorod” value ([1]; intraperitoneal) was 4.77, the “Slope, regression line, Rotorod” value ([1]; oral) was 3.47 and the “Slope, regression line, Picrotoxin” value [2] was 3.86. The “Slope, regression line, MES” value ([3]; intraperitoneal) was 3.62, the “Slope, regression line, MES” value ([3]; oral) was 9.07 and the “Slope, regression line, MES” value [5] was 4.50. For the same molecule, the “Slope, regression line, Strychnine” value [8] was 2.85, the “Slope, regression line, sc Met” value ([6]; oral) was 5.50 and the “Slope, regression line, HD50” value (righting reflex) was 5.92. The “Slope, regression line, Rotorod” value [7] was 6.06.

`O=C1NC(=O)C(c2ccccc2)(c2ccccc2)N1` [Phenytoin] was tested, and the “Slope, regression line, Rotorod” value ([1]; intraperitoneal) was 15.23, the “Slope, regression line, Rotorod” value ([1]; oral) was 13.01 and the “Slope, regression line, MES” value ([3]; intraperitoneal) was 13.66 and 13.67. For the same molecule, the “Slope, regression line, MES” value ([3]; oral) was 6.28, the “Slope, regression line, MES” value [5] was 2.82 and the “Slope, regression line, HD50” value (righting reflex) was 14.03.
